Values of other authors as cited in patent US20120148541A1, “COMPOSITIONS AND METHODS TO GENERATE PILOSEBACEOUS UNITS” (priority 2010, published 2012).
At least one compound was matched to its structure with a doubt left.

System: BMP receptors, type I: ALK2, ALK3 and ALK6
Conditions: reported in literature; preferential for BMP versus TGF-beta and activin signaling

c1cc(-c2cnn3cc(-c4ccc(OCCN5CCCCC5)cc4)cnc23)ccn1 [Dorsomorphin, dorsomorphin]
inhibition of BMP receptors type I (ALK2, ALK3, ALK6); blocks BMP-mediated SMAD1/5/8 phosphorylation: selectively inhibit
